About 7,700 (2.3%) of roughly 330,000 compounds were called active. Inconclusive means that the source gave no clear call. Such entries were picked first, then a sample of the others. Calls come from the whole dose curve; as a rule, active = well fitted inhibition curve with a large enough effect; inconclusive = small, poorly fitted or top-dose-only effect, or effect the other way; inactive = flat fitted curve, though single readings scatter. Potencies of inconclusive entries are doubtful fits and often do not repeat.
experiment: qHTS screen for small molecules that inhibit ELG1-dependent DNA repair in human embryonic kidney (HEK293T) cells expressing luciferase-tagged ELG1; settings: HEK293T ELG1-luciferase reporter, luminescence, 16 h, DNA damage induced by 5-fluorouridine; activity change, negative = inhibition: at 46.1 µM (top of the series); note: nearly all actives have a fitted effect of over 55% in size
Outline: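 Luminescence from the luciferase reporter, measured 30 min after ONE-Glo reagent at room temperature, was the read-out. Beforehand, 2,000 cells per well were exposed for 16 hr at 37 °C to 5-fluorouridine together with compound or vehicle.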
% is set by controls: 0 for no effect and ±100 for the full control effect; potency is the fitted concentration of half-maximal effect.

Row | SMILES | activity change, negative = inhibition | Potency
1 | O=C1CCCN1C(=O)CSc1ccc2ccccc2n1 | inactive: 17.9% | –
2 | CC(=O)c1cnc2nc(SCc3ccc(C)cc3)nn2c1C | inactive: 1.53% | –
3 | CCN(CC)Cc1c(O)ccc2c(=O)c(Oc3ccccc3OC)coc12 | inactive: 18.7% | –
4 | Cn1c(=O)n(C)c2cc([N+](=O)[O-])c(N3CCN(C(=O)c4ccc(F)cc4)CC3)cc21 | – | inconclusive: 16.4 µM [inhibitor, single point]
5 | CC(/C=N/NC(=O)C(O)c1ccccc1)=C\c1ccccc1 (stereo unspecified) | – | inconclusive: 18.4 µM [activator, partial curve]
6 | Cc1cc(Cn2nc(-c3ccccc3)cc2C(=O)NCc2cccs2)on1 | – | inconclusive: 2.82 µM [inhibitor, single point]
7 | CCCOc1cccc(-c2nnc(N)s2)c1 | – | inconclusive: 20.6 µM [activator, partial curve]
8 | CC(C)Oc1ccc(C(=O)Nc2ccc(N3CCN(C(=O)c4ccco4)CC3)cc2)cc1 | inactive: -4.6% | –
9 | Cc1cccc(C)c1OCC(O)CNC(C)C (stereo unspecified) | – | inconclusive: 7.31 µM [inhibitor, partial curve, poor fit]
10 | O=C(c1cc(=O)c2ccccc2o1)N1CCN(c2cccc(Cl)c2)CC1 | – | inconclusive: 25.9 µM [inhibitor, single point]
11 | CC(C)c1onc(C(=O)Nc2cccnc2Cl)c1[N+](=O)[O-] | inactive: 7.51% | –
12 | CN1CCN(C(=S)Nc2cc(S(=O)(=O)N3CCOCC3)ccc2Cl)CC1 | inactive: -11.2% | –
13 | COC(=O)C(C)N1C(=O)S/C(=C/c2cc(C)n(C(C)C)c2C)C1=O (stereo unspecified) | – | inconclusive: 18.4 µM [activator, partial curve]
14 | CC(=O)c1cnc2cc(-c3ccc(C)cc3)nn2c1C | – | inconclusive: 7.31 µM [activator, partial curve]
15 | Cc1ccc(CN2CC(C(=O)Nc3ccc(F)c([N+](=O)[O-])c3)CC2=O)cc1 (stereo unspecified) | inactive: 3.53% | –
16 | O=C(NCC1CCCCC1)c1cc2ccccc2cc1O | – | inconclusive: 14.6 µM [activator, partial curve]
17 | CCn1c(N)c(C(=O)NCCOC)sc1=S | – | inconclusive: 23.1 µM [activator, partial curve, poor fit]
18 | COC(=O)C1CN(C(=O)c2cccc(OC(F)F)c2)c2ccccc2O1 (stereo unspecified) | inactive: 3.27% | –

Row | SMILES | activity change, negative = inhibition | Potency
19 | Cn1nccc1NC(=O)Nc1ccccc1 | – | inconclusive: 29.1 µM [activator, single point]
20 | CC1CN(C(=O)COC(=O)/C=C/c2cccc([N+](=O)[O-])c2)CC(C)O1 (stereo unspecified) | – | active: 1.46 µM
21 | O=C(Nc1cc(S(=O)(=O)Nc2ccc(Cl)cc2)ccc1N1CCCCC1)c1ccc(F)cc1Cl | inactive: -28.2% | –
22 | COc1ccccc1-c1cc(C(=O)N2CCOCC2)no1 | – | inconclusive: 16.4 µM [activator, partial curve]
23 | COc1c(Cl)cc(Cl)cc1C(=O)Nc1ccc(NC(=O)c2cccs2)cc1 | – | inconclusive: 23.1 µM [inhibitor, single point]
24 | COC(=O)c1ccc(C(=O)Nc2ccc(N)cc2N)cc1 | inactive: 11.5% | –
25 | CN(C)S(=O)(=O)c1cc(NC(=O)CN2C(=O)NC3(CCCc4ccccc43)C2=O)ccc1Cl (stereo unspecified) | – | active: 25.9 µM
26 | N=c1c2c(-c3ccccc3)c(-c3ccccc3)oc2ncn1Cc1ccco1 | – | inconclusive: 29.1 µM [inhibitor, single point]
27 | COC(=O)c1[nH]c2ccccc2c1NC(=O)c1ccccc1[N+](=O)[O-] | inactive: 2.61% | –
28 | COCCNC(=O)c1ccccc1NC(=O)c1ccc(Cl)c(S(=O)(=O)Nc2ccc(C)cc2C)c1 | – | inconclusive: 9.2 µM [inhibitor, partial curve]
29 | O=[N+]([O-])c1ccccc1S(=O)(=O)N1CCN(Cc2cc3c(cc2O)OCO3)CC1 | – | inconclusive: 0.58 µM [inhibitor, full curve]
30 | O=C(NC1CC1)C1=C[C@@H](c2coc3ccccc3c2=O)C[C@@H](OCCCCO)O1 | – | inconclusive: 29.1 µM [activator, partial curve, poor fit]
31 | Cc1ccc(NC(=O)Cn2nnc3ccccc32)cc1 | – | inconclusive: 20.6 µM [activator, partial curve]
32 | CC1CCCC(C)N1/N=C/c1cc(Br)c(O)c(Br)c1 (stereo unspecified) | inactive: -0.231% | –
33 | COCC(C)n1c(SCC(=O)NC(=O)Cc2ccccc2)nc2ccccc2c1=O (stereo unspecified) | inactive: -7.56% | –
34 | Cc1ccc(NC(=O)CCl)c(C)c1 | – | inconclusive: 29.1 µM [inhibitor, single point]
35 | O=[N+]([O-])c1ccc2c(c1)c(-c1ccccc1)nc1nncn12 | inactive: 3.34% | –
36 | COCc1cc(=O)n2c(-c3ccc(C)cc3)n[nH]c2n1 | – | inconclusive: 20.6 µM [activator, single point]

Reformatted: results already given
Row,SMILES,"activity change, negative = inhibition",Potency
27,COC(=O)c1[nH]c2ccccc2c1NC(=O)c1ccccc1[N+](=O)[O-],inactive: 2.61%,–
33,COCC(C)n1c(SCC(=O)NC(=O)Cc2ccccc2)nc2ccccc2c1=O (stereo unspecified),inactive: -7.56%,–

Source: PubChem BioAssay AID504467 (National Center for Advancing Translational Sciences (NCATS), 2011)
